Results: patent US20250236878A1 (priority 2019, published 2025)

## GGIRAAPTGNER (Glycine max) [GmRHPP]
Foliar 3.0 mL/tree (Table 71)
  increased foliar iron levels, average relative to untreated: 28%
Foliar 3.0 mL/tree (Table 72)
  increased foliar boron levels, average relative to untreated across three trials: 12%
